# The list shows a part of the results. These are further read-outs of the screen, such as a control signal, another cell line or another target. No call is given for them. Compounds called inactive in the main read-out are mostly missing here. Words in brackets tell the shape of the fitted curve; partial curves, single points and poor fits give uncertain potencies.
# Assay: qHTS Assay to Find Inhibitors of Chronic Active B-Cell Receptor Signaling
# Details: ABC-DLBCL IkBa-CBG/CBR reporter, luminescence ratio (green luciferase fused to IkBa over red control in TMD8 lymphoma cells), 4 h
# Method in brief: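 Compounds up to 46 uM were incubated four hours with TMD8 cells whose green CBG68 luciferase is fused to IkappaBalpha; red CBR luminescence normalised the signal, and concentration-effect curves were fitted to fusion, red and ratio data.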
# [1] = measured here: CBR red luminescence, cell number
# [2] = measured here: IkBa-CBG green luminescence
SMILES,AC50 [1],AC50 [2]
COc1cc(NS(C)(=O)=O)ccc1Nc1c2ccccc2nc2ccccc12,"20.6 µM [falling, partial curve, poor fit]","9.2 µM [rising, partial curve, poor fit]"
CS(=O)(=O)Nc1ccc(C2=NN(C(=O)C3CCCCC3)C(c3cccs3)C2)cc1 (stereo not given),"32.6 µM [falling, single point]",
Cc1ccc(NC2=C(Cl)C(=O)OC2OC(=O)c2ccco2)cc1C (stereo not given),"7.31 µM [falling, partial curve]",
N#Cc1nc(-c2ccc(Cl)cc2)oc1NCC1CCCO1 (stereo not given),"2 µM [rising, full curve]",
Cc1cc(SCC(=O)Nc2cccc(S(=O)(=O)NC3=NCCCCC3)c2)nc2ccccc12,"11.2 µM [falling, partial curve]",
S=C(NCc1ccc(Cl)cc1)Nc1ccc(Cl)cc1Cl,"14.6 µM [rising, partial curve]",
COC(=O)C1=C(C)N(c2cc(C)cc(C)c2)/C(=C/c2ccco2)C1=O,"35.5 µM [falling, single point]",
O=C(CCNC(=O)c1ccccc1Cl)Nc1cc(S(=O)(=O)N2CCOCC2)ccc1N1CCCC1,"20 µM [rising, single point]",
CCOc1ccc(NC(=O)CSc2nccn2C)cc1,"32.6 µM [rising, partial curve, poor fit]",
COc1ccc(-c2nc(-c3cccnc3)no2)cc1OC,"1.78 µM [rising, partial curve]",
CC(=O)Nc1ccc(NC(C)=O)s1,"29.1 µM [rising, single point]",
Cc1cc(C)cc(N2C(=O)N(CC(=O)c3ccc(Br)cc3)c3ccccc3S2(=O)=O)c1,"0.1 µM [rising, full curve, poor fit]",
Cc1nn(C(=O)c2cccc([N+](=O)[O-])c2)c(C)c1Sc1ccccc1,"3.55 µM [falling, single point]",
C=CCc1c(C)nc(-c2ccccc2)nc1N/N=C/c1ccncc1,"5.62 µM [falling, partial curve]",
COc1ccccc1OCc1nnc(SCC(=O)NCc2ccco2)n1-c1ccccc1,"18.4 µM [rising, partial curve, poor fit]",
OCCNc1nc(Nc2ccc(Cl)c(Cl)c2)nc2ccccc12,"12.6 µM [falling, single point]",
COc1ccc(CC(=O)Nc2oc(-c3ccccc3)c(-c3ccccc3)c2C#N)cc1OC,"1.64 µM [falling, full curve]","3.66 µM [rising, full curve]"

SMILES,AC50 [1],AC50 [2]
O=C(NCCc1ccccn1)c1n[nH]c(=O)c2ccccc12,"8.91 µM [falling, partial curve, poor fit]",
COC(=O)c1ccc(CSc2nnc(Nc3cccc(OC)c3)s2)o1,"22.4 µM [falling, partial curve, poor fit]",
Cc1nnc(NC(=O)c2oc3c(ccc4ccccc43)c2C)s1,"14.1 µM [rising, single point]",
COc1ccc(-c2nn(-c3ccccc3)cc2/C=N/O)cc1,"35.5 µM [falling, single point]",
CC(=O)NC12CC3CC(C1)CC(C(=O)Nc1nc4ccc(F)cc4s1)(C3)C2,"31.6 µM [falling, partial curve, poor fit]",
COc1ccc(C(=O)NCC(=O)OCC(=O)Nc2sccc2C#N)cc1OC,"7.94 µM [rising, partial curve, poor fit]",
COc1ccc(CCN2C(=O)CSC2=Nc2ccc(C)cc2C)cc1OC,"5.62 µM [rising, single point]",
O=C(CS(=O)(=O)Cc1ccccc1)Nc1nnc(C2CCCCC2)s1,"31.6 µM [rising, single point]",
COC(=O)c1ccc(OS(=O)(=O)N(C)C)cc1,"14.1 µM [rising, single point]",
CC1CCCC(C)N1C(=O)CSc1nnc(C2CCCCC2)o1 (stereo not given),"0.562 µM [falling, full curve]",
Cc1ccc(-c2onc3ccc(C4(C)OCCO4)cc23)cc1,"29.1 µM [rising, single point]",
COc1ccccc1CN1CCNC(=O)C1CC(=O)N(C)CC1CCOCC1 (stereo not given),"6.31 µM [falling, single point]",
COC(=O)c1ccccc1NC(=O)COC(=O)C1CCCCC1,"35.5 µM [rising, single point]",
O=C(NCc1ccccn1)c1ccc(-c2ccccc2)cc1,"1.12 µM [rising, full curve, poor fit]",
CC1(C)SC(=S)N(NC(=O)Nc2cccc3ccccc23)C1N(O)C(=O)Nc1ccccc1 (stereo not given),"29.1 µM [falling, single point]",
COc1ccc2[nH]c(C(=O)N/N=C/c3ccc(O)cc3O)cc2c1,"11.2 µM [falling, partial curve, poor fit]",

# In a second layout: two of the compounds above
SMILES	AC50 [1]	AC50 [2]
COC(=O)c1ccccc1NC(=O)COC(=O)C1CCCCC1	35.5 µM [rising, single point]	
O=C(NCc1ccccn1)c1ccc(-c2ccccc2)cc1	1.12 µM [rising, full curve, poor fit]	

# — PubChem BioAssay AID493014 (National Center for Advancing Translational Sciences (NCATS), 2011)
